Assay results published in PubChem BioAssay AID1688 (National Center for Advancing Translational Sciences (NCATS), 2009).
The whole screen tested about 220,000 compounds, of which about 2,400 (1.1%) were called active. The inconclusive results got no clear call from the source; some entries with a clear call stand among them for comparison. Calls follow the shape of the dose curve; as a rule, active = well fitted inhibition curve with a large enough effect; inconclusive = small, poorly fitted or top-dose-only effect, or effect the other way; inactive = no such curve, though single readings can be large or run the other way. Potencies of inconclusive entries are doubtful fits and often do not repeat.

Test: qHTS Multiplex Assay to Identify Dual Action Probes in a Cell Model of Huntington: Aggregate Formation (GFP); also: nearly all actives have a fitted effect of over 60% in size
Conditions: PC12 HttQ103-GFP aggregates, Acumen cytometry, 40 h; activity change, negative = inhibition: at 46.1 µM (top of the series)
How it was run: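 Aggregates are detected as GFP objects 1–25 µm with signal 6 STDEV over background in lysates of induced PC12 cells. These carry Huntingtin exon 1 with 103 glutamines fused to GFP under an ecdysone promoter; compounds titrated.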
% is scaled to controls: 0 for no effect and ±100 for the full control effect; potency is read from the fitted curve at half-maximal effect.

SMILES | Potency | activity change, negative = inhibition
CCC(=NCC1CCCO1)c1c(O)n(Cc2ccccc2)c(=O)[nH]c1=O (configuration not stated) | inconclusive: 5.62 µM [inhibitor, single point] | 
CCN1CCC2(CC1)NC(=O)c1ccccc1O2 |  | inactive: 14.3%
Cc1onc(-c2ccccc2Cl)c1C(=O)OCC(=O)c1ccc2c(c1)OCCO2 | inconclusive: 31.6 µM [inhibitor, single point] | 
CCc1cc2c(N3CCN(C)CC3)ncnc2s1 | inconclusive: 7.08 µM [inhibitor, partial curve] | 
Oc1ccccc1/C=N/NP(=S)(c1ccccc1)c1ccccc1 | inconclusive: 22.4 µM [inhibitor, single point] | 
Cc1ccc(N2C(=O)NC(=O)/C(=C/c3cnn(-c4ccc(C)cc4)c3)C2=O)cc1 |  | inactive: 9.54%
CN1C(=O)C(=Cc2ccc(N3CCCCCC3)o2)C(=O)N(C)C1=S |  | inactive: -23.9%
CCOC(=O)c1ccc(N2C(=O)CC(N3CC=C(c4ccc(F)cc4)CC3)C2=O)cc1 (configuration not stated) |  | inactive: 20.3%
Cc1ccc(-n2nc(C)c(C3C(C#N)=C(N)Oc4c3c(=O)oc3ccccc43)c2Cl)cc1 (configuration not stated) | inconclusive: 35.5 µM [inhibitor, single point] | 
C/C1=C\[C@@H](C)C/C=C/[C@H]2[C@@H]3O[C@]3(C)[C@@H](C)[C@H]3[C@H](Cc4c[nH]c5ccccc45)NC(=O)[C@]32C(=O)/C=C/C(=O)[C@@H]1O | inconclusive: 1 µM [inhibitor, full curve] | 
O=C(COc1ccc2ccccc2c1)N1CCN(Cc2c[nH]c3ccccc23)CC1 | active: 10 µM | 
C/C(N)=C(/C#N)C(=O)CSc1nc2cc(Cl)ccc2c(=O)n1-c1ccc(C)cc1 | inconclusive: 35.5 µM [activator, single point] | 
CC(C)c1ccc(N2C(=O)NC(=O)/C(=C\C=C\c3ccco3)C2=O)cc1 | inconclusive: 17.8 µM [activator, partial curve] | 
Cc1ccccc1C(O)(Cc1ccccc1)C1CN2CCC1CC2 (configuration not stated) |  | inactive: -1.78% [at 9.22 µM]
Cc1ccc(S(=O)(=O)N2CCCCC2)cc1NC(=O)CSc1ncnc2ccccc12 | inconclusive: 8.91 µM [activator, partial curve] | 
COc1cc(O)c(C(=O)O)c(-c2cc(O)c(O)cc2C)c1 |  | inactive: 6.72% [at 9.22 µM]
Oc1ccc(Cl)cc1Sc1cc(Cl)ccc1O | inconclusive: 15.8 µM [inhibitor, full curve, poor fit] | 
CCC(C)c1ccc(N2C(=O)NC(=O)/C(=C/c3cccn3CCOc3ccc(C)cc3)C2=O)cc1 (configuration not stated) | inconclusive: 10 µM [activator, single point] | 
O=C(CCn1c(=O)oc2ccccc21)N1CCN(C(c2ccccc2)c2ccccc2)CC1 | inconclusive: 25.1 µM [inhibitor, single point] | 
Cc1ccc(S(=O)(=O)N2CCCCC2)cc1NC(=O)Nc1ccc(Cl)cc1Cl | inconclusive: 10 µM [inhibitor, single point] | 
O=C(CCCCCn1c(=S)[nH]c2ccccc2c1=O)N1CCC2(CC1)OCCO2 | inconclusive: 3.16 µM [inhibitor, single point] | 

Compounds shown so far containing a Cl atom (5):
SMILES | Potency | activity change, negative = inhibition
Cc1onc(-c2ccccc2Cl)c1C(=O)OCC(=O)c1ccc2c(c1)OCCO2 | inconclusive: 31.6 µM [inhibitor, single point] | 
Cc1ccc(-n2nc(C)c(C3C(C#N)=C(N)Oc4c3c(=O)oc3ccccc43)c2Cl)cc1 (configuration not stated) | inconclusive: 35.5 µM [inhibitor, single point] | 
C/C(N)=C(/C#N)C(=O)CSc1nc2cc(Cl)ccc2c(=O)n1-c1ccc(C)cc1 | inconclusive: 35.5 µM [activator, single point] | 
Oc1ccc(Cl)cc1Sc1cc(Cl)ccc1O | inconclusive: 15.8 µM [inhibitor, full curve, poor fit] | 
Cc1ccc(S(=O)(=O)N2CCCCC2)cc1NC(=O)Nc1ccc(Cl)cc1Cl | inconclusive: 10 µM [inhibitor, single point] | 

Carrying on.

SMILES | Potency | activity change, negative = inhibition
CCCCn1c(O)c(C(CC)=NCc2ccc3c(c2)OCO3)c(=O)[nH]c1=O | active: 25.1 µM | 
COC(=O)C[C@](O)(CCCC(C)(C)O)C(=O)O[C@@H]1C(OC)=C[C@]23CCCN2CCc2cc4c(cc2[C@H]13)OCO4 | active: 0.158 µM | 
O=[N+]([O-])c1ccc(N2CCNCC2)cc1NC1CC1 | inconclusive: 0.562 µM [activator, full curve, poor fit] | 
C=CCn1c(=O)c(C=Nc2c(OC)cccc2[N+](=O)[O-])c(O)n(CCCC)c1=O |  | inactive: -8.22%
O=C(NC(Oc1ccccc1)C(Cl)(Cl)Cl)c1ccccc1 (configuration not stated) |  | inactive: 7.85%
CC(C)CCn1c(=O)c(C(=O)Nc2ccccc2S(N)(=O)=O)c(O)c2ccccc21 | inconclusive: 11.2 µM [inhibitor, partial curve] | 
COc1ccc(NC2(C#N)CCCCC2)cc1 |  | inconclusive: 38.4% [activator]
O=c1c2ccccc2nc(-c2ccco2)n1-c1ccccn1 | inconclusive: 6.31 µM [inhibitor, single point] | 
CCOC(=O)c1c(-n2c(C)cc(C=C3C(=O)NC(=S)NC3=O)c2C)sc2c1CCCC2 | inconclusive: 35.5 µM [inhibitor, single point] | 
CCOc1ccccc1-n1c(O)c(C=NCc2ccc3c(c2)OCO3)c(=O)[nH]c1=O | inconclusive: 6.31 µM [inhibitor, partial curve, poor fit] | 
Cc1ccc(N2C(=O)/C(=C/c3ccc(CN(CCC#N)S(C)(=O)=O)o3)C(=O)NC2=S)cc1C |  | inactive: 4.43%
COc1ccccc1-c1n[nH]c(=S)n1Cc1ccco1 | inconclusive: 3.98 µM [activator, single point] | 
Cc1ncc(CC(=O)n2cc(C(=O)c3cc(Cl)ccc3O)cn2)s1 | active: 14.1 µM | 
C=CCNc1nnc(Sc2ncccc2[N+](=O)[O-])s1 | inconclusive: 22.4 µM [inhibitor, single point] | 
C=CCOC(=O)C1=C(C)OC(N)=C(C(=O)OCC)C12C(=O)N(CC(N)=O)c1ccccc12 (configuration not stated) | inconclusive: 17.8 µM [activator, single point] | 
COC(=O)c1nc(-c2ccc3c(n2)C(=O)C(N)=C(OC)C3=O)c(N)c(-c2ccc(OC)c(OC)c2O)c1C |  | inactive: -9.5% [at 9.22 µM]
CCCCC(=O)N/N=C/c1c(O)n(CC)c(=S)n(CC)c1=O | active: 3.98 µM | 
CCOC(=O)c1oc2ccccc2c1NC(=O)CN1CCN(C)CC1 | inconclusive: 5.62 µM [inhibitor, single point] | 
C[n+]1c2cc(N)ccc2cc2ccc(N)cc21 | active: 10 µM | 
C[C@]12CC[C@H]3[C@@H](CC[C@@]45O[C@@H]4C(=O)C(C#N)C[C@]35C)[C@@H]1CC[C@@H]2O (some centres not stated) |  | inactive: 3.24%
CC(=NCCc1ccccc1)c1c(O)n(C)c(=O)n(C)c1=O | inconclusive: 5.62 µM [activator, single point] | 
